Taken from: PubChem BioAssay AID1671195 (Yale University, 2021)

Test: 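Regulators of LDL receptor activity judged by labelled LDL uptake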 (primary screen)
System: human Huh7 hepatoma cells
Knock-down reagent: siRNA pool against human genes, 18 nM
Timing: about 2 to 2.5 days of knockdown, then 8 h LDL uptake
Treatment: DiI-labelled LDL at 30 µg/ml for 8 h, in lipoprotein-deficient serum medium
Measurement: 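Per-cell DiI-LDL intensity by automated imaging; well means scaled to the plate median and given as a robust z-score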
Direction: robust z-score: higher = more LDL uptake after knockdown
Hit rule: 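Active when two or more replicates show a robust z-score above 2 or below -2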
Here is one part, drawn at random, of about 22,000 deposited reagents. About 1,510 of them (6.9%) count as active. 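Active includes knockdowns raising or lowering LDL uptake; positive z-scores mean more uptake, negative mean less.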 The numbers tell different reagents against one gene apart.

gene symbol | reagent no. | robust z-score, replicate 1 | robust z-score, replicate 2 | robust z-score, replicate 3 | outcome
CDH16 (GeneID 1014) | 1 | 0.345 | -0.371 | -0.0299 | inactive
CACNA2D2 (GeneID 9254) | 1 | 4.05 | 4.02 | 3.07 | active
NCKAP5L (GeneID 57701) | 1 | 1.4 | 1.86 | 2.79 | inactive
NCKAP5L (GeneID 57701) | 2 | -1.28 | -1.09 | -1.2 | inactive
LMBR1L (GeneID 55716) | 1 | 0.556 | 0.851 | 0.332 | inactive
LHX9 (GeneID 56956) | 1 | -0.369 | 0.29 | -0.52 | inactive
GNE (GeneID 10020) | 1 | -0.101 | -0.302 | 0.65 | inactive
LCN2 (GeneID 3934) | 1 | 2.45 | 3.24 | 2.59 | active
LOC442226 (retired record) (GeneID 442226) | 1 | -0.855 | -1.51 | -0.77 | inactive
NUS1P1 (GeneID 729148) | 1 | 0.742 | 0.535 | 0.857 | inactive
NRG4 (GeneID 145957) | 1 | -0.408 | -0.71 | -0.543 | inactive
SCN1A (GeneID 6323) | 1 | -0.041 | -0.00632 | -0.168 | inactive
PPARD (GeneID 5467) | 1 | 1.24 | -0.248 | 0.183 | inactive
BCAT1 (GeneID 586) | 1 | -0.945 | -1.06 | -1.14 | inactive
APOB (GeneID 338) | 1 | 0.198 | 0.0406 | -0.726 | inactive
PINK1 (GeneID 65018) | 1 | -1.26 | -0.853 | -1.61 | inactive
LOC343153 (retired record) (GeneID 343153) | 1 | -0.105 | 0.166 | 0.0347 | inactive
QNG1 (GeneID 84267) | 1 | -0.3 | -0.531 | -0.641 | inactive
IL11 (GeneID 3589) | 1 | 0.154 | -0.173 | -0.229 | inactive
SLC25A19 (GeneID 60386) | 1 | -0.323 | -0.68 | -0.144 | inactive
KLK9 (GeneID 284366) | 1 | 0.146 | -0.295 | 0.0679 | inactive
MXD4 (GeneID 10608) | 1 | -0.45 | -0.359 | -0.091 | inactive
CPQ (GeneID 10404) | 1 | -0.713 | -1.02 | -0.887 | inactive
SPACA7 (GeneID 122258) | 1 | -0.784 | -0.934 | -0.88 | inactive
LOC442127 (retired record) (GeneID 442127) | 1 | 0.0466 | 0.249 | 0.353 | inactive
RNF167 (GeneID 26001) | 1 | -0.515 | 0.378 | -0.732 | inactive
ADCYAP1 (GeneID 116) | 1 | -1.75 | -1.65 | -1.43 | inactive
PLA2G4E (GeneID 123745) | 1 | 0.487 | -0.0738 | 0.598 | inactive
PLA2G4E (GeneID 123745) | 2 | 0.0431 | -0.0496 | 0.431 | inactive
ZNF683 (GeneID 257101) | 1 | -1.44 | -1.55 | -1.06 | inactive

Entries listed so far with an active call, once more:
gene symbol | reagent no. | robust z-score, replicate 1 | robust z-score, replicate 2 | robust z-score, replicate 3 | outcome
CACNA2D2 (GeneID 9254) | 1 | 4.05 | 4.02 | 3.07 | active
LCN2 (GeneID 3934) | 1 | 2.45 | 3.24 | 2.59 | active

Continued:
gene symbol | reagent no. | robust z-score, replicate 1 | robust z-score, replicate 2 | robust z-score, replicate 3 | outcome
AFM (GeneID 173) | 1 | -0.61 | -1.1 | -1.03 | inactive
LEFTY2 (GeneID 7044) | 1 | -0.707 | -0.826 | 0.0361 | inactive
LOC440552 (retired record) (GeneID 440552) | 1 | 1.57 | 1.13 | 1.06 | inactive
OR2M7 (GeneID 391196) | 1 | 0.211 | 1.12 | 1.27 | inactive
LOC441626 (retired record) (GeneID 441626) | 1 | 2.35 | 1.6 | 1.24 | inactive
LOC341098 (retired record) (GeneID 341098) | 1 | 0.918 | 0.725 | 1.3 | inactive
APOA4 (GeneID 337) | 1 | -0.0695 | 0.305 | 0.536 | inactive
PRKD2 (GeneID 25865) | 1 | -0.0781 | -0.796 | 0.314 | inactive
TAMM41 (GeneID 132001) | 1 | -0.696 | -0.398 | -0.198 | inactive
GREM1 (GeneID 26585) | 1 | -0.825 | -0.439 | -1.95 | inactive
B3GNT9 (GeneID 84752) | 1 | -0.734 | -0.931 | -1.14 | inactive
MB (GeneID 4151) | 1 | -0.665 | -0.846 | -0.829 | inactive
WIZ (GeneID 58525) | 1 | -0.931 | -0.762 | -0.661 | inactive
LIN52 (GeneID 91750) | 1 | -0.717 | -1.21 | -1.17 | inactive
TTI2 (GeneID 80185) | 1 | 0.095 | -0.11 | 0.315 | inactive
CYP4F3 (GeneID 4051) | 1 | 0.233 | 1.08 | 0.789 | inactive
GSTA2 (GeneID 2939) | 1 | -0.723 | 1.03 | -0.6 | inactive
HSPA8P8 (GeneID 100287551) | 1 | 3.86 | 3.92 | 3.26 | active
HSPA8P8 (GeneID 100287551) | 2 | -0.501 | -0.992 | -0.97 | inactive
OR5M3 (GeneID 219482) | 1 | 0.956 | 1.97 | 1.69 | inactive
AGPAT5 (GeneID 55326) | 1 | -0.0144 | 0.0784 | -0.566 | inactive
LINC01342 (GeneID 254099) | 1 | 0.0823 | 0.0608 | -0.152 | inactive
SLC2A8 (GeneID 29988) | 1 | 0.641 | 0.617 | 1.72 | inactive
LCE3E (GeneID 353145) | 1 | -0.0946 | -0.28 | -0.468 | inactive
ZNF706 (GeneID 51123) | 1 | 0.288 | -0.784 | -1.59 | inactive
SEL1L3 (GeneID 23231) | 1 | 0.172 | -1.15 | -0.756 | inactive
LOC440943 (retired record) (GeneID 440943) | 1 | 0.453 | 0.477 | 1.1 | inactive
ACSL4 (GeneID 2182) | 1 | -0.705 | -0.488 | -0.651 | inactive
IQCB2P (GeneID 340192) | 1 | -0.789 | -0.858 | -0.733 | inactive
AGPS-DT (GeneID 100130691) | 1 | 0.0218 | -0.035 | 0.119 | inactive
SDCCAG8 (GeneID 10806) | 1 | -0.468 | -0.496 | -1.32 | inactive
MASP2 (GeneID 10747) | 1 | -0.543 | -0.224 | -0.246 | inactive
BLOC1S2 (GeneID 282991) | 1 | 0.0113 | -0.203 | -0.29 | inactive
NDUFB9 (GeneID 4715) | 1 | 1.4 | 1.78 | 0.68 | inactive
PSMC4 (GeneID 5704) | 1 | 2.25 | 2.56 | 1.97 | active
SEMA3E (GeneID 9723) | 1 | 0.0219 | -0.214 | -1.25 | inactive
ARAF (GeneID 369) | 1 | 0.303 | -0.0477 | -0.43 | inactive
PAK3 (GeneID 5063) | 1 | -1.15 | -0.172 | -1.27 | inactive
